No constants are given. Whether binding was seen depends on the method and setting. Some entries that bind do so weakly or less than the wild type. Where a sequence is shown, tags or fusion partners need not be part of it.
How the values were obtained:
[1] = target: T1, p120-catenin (p120ctn), endogenous (human) (UniProt O60716); test: GST pull-down
T1 sequence (looked up): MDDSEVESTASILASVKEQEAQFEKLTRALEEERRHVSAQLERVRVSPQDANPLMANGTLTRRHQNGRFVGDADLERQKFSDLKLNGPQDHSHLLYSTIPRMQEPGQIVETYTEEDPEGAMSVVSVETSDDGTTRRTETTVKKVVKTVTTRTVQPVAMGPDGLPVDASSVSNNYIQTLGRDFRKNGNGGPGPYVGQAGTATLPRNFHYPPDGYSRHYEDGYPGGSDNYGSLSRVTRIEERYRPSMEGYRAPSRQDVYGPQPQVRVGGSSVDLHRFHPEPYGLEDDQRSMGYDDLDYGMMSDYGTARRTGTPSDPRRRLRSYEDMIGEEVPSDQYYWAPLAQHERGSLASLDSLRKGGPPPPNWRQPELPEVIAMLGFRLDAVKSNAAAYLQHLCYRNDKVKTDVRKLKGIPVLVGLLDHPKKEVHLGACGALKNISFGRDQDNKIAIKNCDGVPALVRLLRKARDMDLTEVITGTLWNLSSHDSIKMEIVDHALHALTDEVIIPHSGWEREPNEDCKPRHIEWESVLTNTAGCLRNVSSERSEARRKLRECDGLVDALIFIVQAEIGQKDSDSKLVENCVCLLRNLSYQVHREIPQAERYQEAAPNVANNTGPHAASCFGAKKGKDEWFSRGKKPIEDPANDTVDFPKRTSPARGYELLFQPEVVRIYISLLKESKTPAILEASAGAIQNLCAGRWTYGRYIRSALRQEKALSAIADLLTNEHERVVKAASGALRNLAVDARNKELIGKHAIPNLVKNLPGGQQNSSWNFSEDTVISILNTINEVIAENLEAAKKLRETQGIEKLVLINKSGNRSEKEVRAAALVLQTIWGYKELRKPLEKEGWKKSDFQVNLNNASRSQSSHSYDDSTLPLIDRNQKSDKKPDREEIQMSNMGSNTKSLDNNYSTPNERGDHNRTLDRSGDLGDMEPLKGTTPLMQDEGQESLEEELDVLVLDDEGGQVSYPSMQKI

[2] = target: T1, p120-catenin (p120ctn), endogenous (human); test: far western, GST fusion protein as bait (2.0 µg/ml) on blotted immunoprecipitates from hdMVEC

- binding [1]: binds
- binding [2]: binds
Binder: SDLFKTKMTLSLPAPAIRKEILSPVDIIDRNNHHNMM (peptide, not shown: a dimerising Fc or GST) [GST-LPP3-C-cyto fusion protein (GST fused to the C-terminal cytoplasmic domain of LPP3)]
